# PubChem BioAssay AID624297 (National Center for Advancing Translational Sciences (NCATS), 2012)
# In all, about 340,000 compounds went through this assay and about 6,200 (1.8%) were called active. This list was built around the results that the source calls inconclusive (neither active nor inactive); the mix of calls is not that of the screen. Calls follow the shape of the dose curve; as a rule, active = well fitted activation curve with a large enough effect; inconclusive = small, poorly fitted or top-dose-only effect; inactive = no such curve, though single readings can be large or run the other way. Where the call is inconclusive, the potency comes from a doubtful curve fit.
# Test: A quantitative high throughput screen for small molecules that induce DNA re-replication in SW480 colon adenocarcinoma cells. Also: nearly all actives have a fitted effect of over 55% in size. As to re-replication activation: % of control where 0% means no effect.
# Details: Hoechst DNA content imaging, 48 h; re-replication activation: at 46.1 µM (top of the series) unless noted
# Outline: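 Cells (250 per well) received 23 nL compound or DMSO by pin tool and were kept 48 hr at 37 C, 5% CO2. Nuclei were then stained with Hoechst for 40 min and scanned for DNA content.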
# Potency is read from the fitted curve at half-maximal effect.
SMILES,re-replication activation,Potency
CS(=O)(=O)N1CCN(C(=O)c2csc3ccccc23)CC1,inactive: -9.96%,–
CCOC(=O)C[C@H]1c2cc(F)ccc2S(=O)(=O)N1C1CCCCC1,inactive: -4.59%,–
O=C(CN(C(=O)c1csnn1)c1cccc(F)c1)NCc1ccc2c(c1)OCO2,–,"inconclusive: 3.16 µM [activator, single point]"
CCOC(=O)C1=C(CSc2nc3c(cc2C#N)CN(C)CC3)OC(N)=C(C#N)C1c1ccc(Cl)cc1 (stereo not drawn),–,"inconclusive: 18.4 µM [activator, partial curve, poor fit]"
COc1ccc(C(=O)Cn2nnc(-c3ccccc3NC(=O)C3CC3)n2)cc1,–,"inconclusive: 9.2 µM [activator, partial curve, poor fit]"
Cc1ccc(NC(=O)c2ncn(CCCNCCCc3ccccc3)n2)cc1C,–,"inconclusive: 29.1 µM [activator, partial curve, poor fit]"
CCn1cc(CN2CCC(C(=O)Nc3cccc(-c4cccc(Cl)c4)c3)CC2)cn1,–,active: 18.4 µM
CN(C(=O)c1cccs1)c1ccc(OCC(=O)N2CCC(C(N)=O)CC2)cc1,inactive: -34%,–
CCOc1cc(/C=C2\C(=O)N(CCc3ccc(OC)c(OC)c3)C(C)=C2C(=O)OC)ccc1O,–,"inconclusive: 29.1 µM [activator, single point]"
CC(C)(C)c1ccc(NC(=O)C2=CN3CCS(=O)(=O)N=C3C=C2)cc1,–,"inconclusive: 29.1 µM [activator, single point]"
O=S(=O)(c1ccc(Cl)cc1)c1cnc2ccccc2n1,–,"inconclusive: 16.4 µM [activator, single point]"
Cc1nc(N2N=C3/C(=C/c4ccc(F)cc4)CCCC3C2c2ccc(F)cc2)sc1C(=O)N(C)C (stereo not drawn),–,"inconclusive: 18.4 µM [activator, single point]"
Cc1ccc(C2=NC3(CCCCC3)N=C2SCC(=O)Nc2ccc3c(c2)OCCO3)cc1,–,"inconclusive: 13 µM [activator, partial curve]"
O=C(NCCO)/C(=C\c1ccc([N+](=O)[O-])o1)NC(=O)c1ccccc1,–,"inconclusive: 29.1 µM [activator, single point]"
N#CC1=C(N)OC2=C(CC/C2=C\c2ccccc2)C1c1ccccc1 (stereo not drawn),–,active: 14.6 µM
COc1ccc(C2C(C(C)=O)=C(O)C(=O)N2c2nccs2)c(OC)c1 (stereo not drawn),–,active: 20.6 µM
CC(C)CC(C(=O)Nc1cccc(O)c1)N1C(=O)c2ccccc2C1=O (stereo not drawn),–,"inconclusive: 18.4 µM [activator, single point]"
Cc1ccc2cc(CN(CC3CCCO3)C(=S)Nc3ccccc3)c(=O)[nH]c2c1 (stereo not drawn),–,"inconclusive: 23.1 µM [activator, single point]"

# 2 compounds drawn at random from those above:
SMILES,re-replication activation,Potency
CCn1cc(CN2CCC(C(=O)Nc3cccc(-c4cccc(Cl)c4)c3)CC2)cn1,–,active: 18.4 µM
Cc1ccc2cc(CN(CC3CCCO3)C(=S)Nc3ccccc3)c(=O)[nH]c2c1 (stereo not drawn),–,"inconclusive: 23.1 µM [activator, single point]"
